Laboratory results published in the supplement of paper PMC12823440, “Inhibitors supercharge kinase turnover through native proteolytic circuits” (Nature, 2025).
This is one part of the list. The calls rarely recur for the same compound in another form.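 Kinases, fused to nanoluciferase, were expressed in K562 cells; luminescence was measured every 4 h from 2 to 18 h as percent of control (DMSO = 100%, positive control = 0%). A time point is decreased if signal falls significantly (2 sigma). Hits were called by the authors by a rule that is not shown; the count of time points alone does not decide it.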

Protein sequences, listed by entry. Tags and fused reporters are not part of them. Lines headed by an entry give the natural chain unless they say otherwise; changes in a name come on top.
UniProt P50750, whole entry: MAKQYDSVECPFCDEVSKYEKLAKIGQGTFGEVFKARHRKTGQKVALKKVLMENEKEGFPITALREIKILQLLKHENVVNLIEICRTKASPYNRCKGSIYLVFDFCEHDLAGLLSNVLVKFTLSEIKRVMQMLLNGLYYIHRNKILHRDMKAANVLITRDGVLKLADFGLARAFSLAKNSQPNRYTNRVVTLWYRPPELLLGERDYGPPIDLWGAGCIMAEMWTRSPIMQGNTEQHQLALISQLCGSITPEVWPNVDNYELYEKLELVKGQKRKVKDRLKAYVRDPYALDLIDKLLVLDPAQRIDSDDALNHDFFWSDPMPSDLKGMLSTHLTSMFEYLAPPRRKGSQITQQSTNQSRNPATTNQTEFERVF
UniProt O96017, whole entry: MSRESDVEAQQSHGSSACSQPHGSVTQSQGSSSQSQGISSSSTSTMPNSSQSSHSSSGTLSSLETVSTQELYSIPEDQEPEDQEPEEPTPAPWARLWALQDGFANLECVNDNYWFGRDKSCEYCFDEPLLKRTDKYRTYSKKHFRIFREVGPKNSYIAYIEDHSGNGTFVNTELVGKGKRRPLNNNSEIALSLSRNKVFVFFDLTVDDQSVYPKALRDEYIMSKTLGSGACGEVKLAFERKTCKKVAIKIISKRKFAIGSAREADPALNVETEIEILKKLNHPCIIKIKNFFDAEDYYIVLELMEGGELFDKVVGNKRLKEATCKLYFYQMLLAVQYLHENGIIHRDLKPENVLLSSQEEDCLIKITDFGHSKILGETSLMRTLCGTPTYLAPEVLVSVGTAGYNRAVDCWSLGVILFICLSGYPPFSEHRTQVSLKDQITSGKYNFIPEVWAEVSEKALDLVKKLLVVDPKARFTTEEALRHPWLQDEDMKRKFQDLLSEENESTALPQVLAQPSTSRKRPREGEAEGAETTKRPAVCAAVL
UniProt P07333, whole entry: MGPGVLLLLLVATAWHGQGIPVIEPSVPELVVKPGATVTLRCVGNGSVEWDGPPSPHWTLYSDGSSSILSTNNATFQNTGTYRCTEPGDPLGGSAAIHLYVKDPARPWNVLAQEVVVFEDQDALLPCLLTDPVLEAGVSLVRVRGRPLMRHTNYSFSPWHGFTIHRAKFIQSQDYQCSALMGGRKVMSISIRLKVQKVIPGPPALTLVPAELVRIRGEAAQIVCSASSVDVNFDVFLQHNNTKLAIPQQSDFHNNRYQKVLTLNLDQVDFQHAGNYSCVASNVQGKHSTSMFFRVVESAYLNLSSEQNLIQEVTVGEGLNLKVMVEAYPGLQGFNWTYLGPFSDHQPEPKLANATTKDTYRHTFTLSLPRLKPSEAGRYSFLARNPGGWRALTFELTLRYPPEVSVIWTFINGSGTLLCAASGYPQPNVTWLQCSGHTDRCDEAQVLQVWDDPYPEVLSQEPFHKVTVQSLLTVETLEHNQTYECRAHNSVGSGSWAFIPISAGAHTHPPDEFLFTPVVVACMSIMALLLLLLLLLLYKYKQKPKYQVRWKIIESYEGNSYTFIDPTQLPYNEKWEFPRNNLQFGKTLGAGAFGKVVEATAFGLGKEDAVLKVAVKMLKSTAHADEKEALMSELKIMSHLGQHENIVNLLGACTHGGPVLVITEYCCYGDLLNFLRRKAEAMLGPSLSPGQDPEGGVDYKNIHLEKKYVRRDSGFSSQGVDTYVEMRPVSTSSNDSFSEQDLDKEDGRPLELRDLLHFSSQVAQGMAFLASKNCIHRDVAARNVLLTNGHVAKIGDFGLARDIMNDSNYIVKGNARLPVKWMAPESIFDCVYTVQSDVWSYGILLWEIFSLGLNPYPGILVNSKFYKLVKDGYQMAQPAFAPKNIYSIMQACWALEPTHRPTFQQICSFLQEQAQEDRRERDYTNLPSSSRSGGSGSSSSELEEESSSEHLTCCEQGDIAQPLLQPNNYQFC
UniProt P48730: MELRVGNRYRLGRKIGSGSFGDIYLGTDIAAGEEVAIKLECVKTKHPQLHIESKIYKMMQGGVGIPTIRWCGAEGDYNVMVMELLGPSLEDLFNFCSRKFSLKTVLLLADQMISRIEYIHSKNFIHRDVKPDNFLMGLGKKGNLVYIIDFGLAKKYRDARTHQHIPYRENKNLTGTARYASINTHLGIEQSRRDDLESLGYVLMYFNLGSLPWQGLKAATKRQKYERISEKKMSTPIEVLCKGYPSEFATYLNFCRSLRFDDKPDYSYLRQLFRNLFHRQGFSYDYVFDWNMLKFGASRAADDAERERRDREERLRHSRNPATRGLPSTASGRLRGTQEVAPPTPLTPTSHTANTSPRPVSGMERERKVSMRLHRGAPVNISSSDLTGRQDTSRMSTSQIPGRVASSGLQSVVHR
UniProt Q08345: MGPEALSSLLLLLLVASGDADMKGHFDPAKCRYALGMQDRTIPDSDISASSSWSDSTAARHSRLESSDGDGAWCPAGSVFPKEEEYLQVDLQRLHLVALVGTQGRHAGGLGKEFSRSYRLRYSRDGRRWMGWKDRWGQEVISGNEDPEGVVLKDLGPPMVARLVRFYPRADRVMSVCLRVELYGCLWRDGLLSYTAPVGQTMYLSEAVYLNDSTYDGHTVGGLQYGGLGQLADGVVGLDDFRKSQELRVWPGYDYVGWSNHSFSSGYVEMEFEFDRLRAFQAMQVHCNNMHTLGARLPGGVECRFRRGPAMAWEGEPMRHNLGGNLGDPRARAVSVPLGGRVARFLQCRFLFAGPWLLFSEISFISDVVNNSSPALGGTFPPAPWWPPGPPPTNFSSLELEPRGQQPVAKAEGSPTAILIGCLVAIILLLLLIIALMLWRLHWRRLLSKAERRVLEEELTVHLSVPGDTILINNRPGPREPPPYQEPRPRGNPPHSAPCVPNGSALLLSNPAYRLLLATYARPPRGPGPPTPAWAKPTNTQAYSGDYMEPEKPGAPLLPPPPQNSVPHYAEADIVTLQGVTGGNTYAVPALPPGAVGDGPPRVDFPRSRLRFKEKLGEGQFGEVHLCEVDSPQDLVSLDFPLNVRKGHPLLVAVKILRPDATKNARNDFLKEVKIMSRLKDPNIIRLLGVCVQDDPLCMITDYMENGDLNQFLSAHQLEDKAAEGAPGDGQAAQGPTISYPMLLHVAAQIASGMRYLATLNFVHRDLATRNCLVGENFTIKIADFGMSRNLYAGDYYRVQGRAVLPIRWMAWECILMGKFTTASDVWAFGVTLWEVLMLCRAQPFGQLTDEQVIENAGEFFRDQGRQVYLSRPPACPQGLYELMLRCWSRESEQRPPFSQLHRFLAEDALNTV
UniProt Q92630: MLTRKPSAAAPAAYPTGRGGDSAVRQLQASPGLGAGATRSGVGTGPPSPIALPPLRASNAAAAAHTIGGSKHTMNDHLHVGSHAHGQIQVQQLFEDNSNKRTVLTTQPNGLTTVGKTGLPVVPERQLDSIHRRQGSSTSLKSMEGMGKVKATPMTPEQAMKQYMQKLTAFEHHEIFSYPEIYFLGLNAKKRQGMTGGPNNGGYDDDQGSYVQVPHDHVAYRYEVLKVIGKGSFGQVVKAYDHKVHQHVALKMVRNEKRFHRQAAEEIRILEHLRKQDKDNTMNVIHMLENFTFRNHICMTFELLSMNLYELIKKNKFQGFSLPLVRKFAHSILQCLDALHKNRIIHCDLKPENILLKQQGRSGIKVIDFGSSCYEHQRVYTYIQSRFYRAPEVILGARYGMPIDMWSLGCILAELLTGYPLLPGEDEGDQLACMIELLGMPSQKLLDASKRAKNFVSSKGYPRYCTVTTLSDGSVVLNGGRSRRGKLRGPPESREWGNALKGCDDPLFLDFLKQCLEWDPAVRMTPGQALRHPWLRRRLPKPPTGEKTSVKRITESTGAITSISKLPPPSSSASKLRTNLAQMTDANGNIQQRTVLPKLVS
UniProt P21860, whole entry: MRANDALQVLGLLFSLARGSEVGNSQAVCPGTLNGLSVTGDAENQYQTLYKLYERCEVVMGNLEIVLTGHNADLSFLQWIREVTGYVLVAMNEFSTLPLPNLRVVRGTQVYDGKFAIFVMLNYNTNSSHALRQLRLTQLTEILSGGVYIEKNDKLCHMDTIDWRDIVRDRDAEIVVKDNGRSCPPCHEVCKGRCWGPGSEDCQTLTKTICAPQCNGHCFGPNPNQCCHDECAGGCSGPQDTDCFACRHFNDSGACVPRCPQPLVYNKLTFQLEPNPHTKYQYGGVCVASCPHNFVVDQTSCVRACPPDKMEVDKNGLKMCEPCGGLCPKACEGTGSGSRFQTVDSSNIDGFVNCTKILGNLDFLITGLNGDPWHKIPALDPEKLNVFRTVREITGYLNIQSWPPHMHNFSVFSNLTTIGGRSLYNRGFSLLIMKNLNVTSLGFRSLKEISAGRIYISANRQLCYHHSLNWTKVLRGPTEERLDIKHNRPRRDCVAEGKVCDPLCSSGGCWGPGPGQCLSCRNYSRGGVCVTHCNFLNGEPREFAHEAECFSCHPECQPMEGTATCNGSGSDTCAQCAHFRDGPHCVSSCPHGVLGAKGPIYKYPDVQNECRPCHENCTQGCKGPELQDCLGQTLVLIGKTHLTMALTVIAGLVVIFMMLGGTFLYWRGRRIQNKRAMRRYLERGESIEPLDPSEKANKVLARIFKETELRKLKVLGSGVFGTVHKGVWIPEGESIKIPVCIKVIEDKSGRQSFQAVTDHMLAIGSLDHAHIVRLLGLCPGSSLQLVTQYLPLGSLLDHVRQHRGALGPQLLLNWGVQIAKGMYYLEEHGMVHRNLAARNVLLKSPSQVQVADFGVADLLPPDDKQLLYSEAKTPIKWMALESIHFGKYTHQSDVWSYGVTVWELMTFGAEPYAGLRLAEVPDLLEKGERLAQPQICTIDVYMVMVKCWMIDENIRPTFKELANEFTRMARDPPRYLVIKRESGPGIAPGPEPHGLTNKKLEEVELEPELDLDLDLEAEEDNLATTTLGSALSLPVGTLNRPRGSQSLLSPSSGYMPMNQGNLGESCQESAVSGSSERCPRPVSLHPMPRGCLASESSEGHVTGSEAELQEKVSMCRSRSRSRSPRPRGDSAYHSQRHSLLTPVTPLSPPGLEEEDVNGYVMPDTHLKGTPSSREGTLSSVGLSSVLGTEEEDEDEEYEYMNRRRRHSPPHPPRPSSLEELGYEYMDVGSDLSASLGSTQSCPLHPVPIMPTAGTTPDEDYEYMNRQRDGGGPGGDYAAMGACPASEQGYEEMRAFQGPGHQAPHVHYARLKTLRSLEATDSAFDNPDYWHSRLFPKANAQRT
UniProt Q15303, whole entry R711C: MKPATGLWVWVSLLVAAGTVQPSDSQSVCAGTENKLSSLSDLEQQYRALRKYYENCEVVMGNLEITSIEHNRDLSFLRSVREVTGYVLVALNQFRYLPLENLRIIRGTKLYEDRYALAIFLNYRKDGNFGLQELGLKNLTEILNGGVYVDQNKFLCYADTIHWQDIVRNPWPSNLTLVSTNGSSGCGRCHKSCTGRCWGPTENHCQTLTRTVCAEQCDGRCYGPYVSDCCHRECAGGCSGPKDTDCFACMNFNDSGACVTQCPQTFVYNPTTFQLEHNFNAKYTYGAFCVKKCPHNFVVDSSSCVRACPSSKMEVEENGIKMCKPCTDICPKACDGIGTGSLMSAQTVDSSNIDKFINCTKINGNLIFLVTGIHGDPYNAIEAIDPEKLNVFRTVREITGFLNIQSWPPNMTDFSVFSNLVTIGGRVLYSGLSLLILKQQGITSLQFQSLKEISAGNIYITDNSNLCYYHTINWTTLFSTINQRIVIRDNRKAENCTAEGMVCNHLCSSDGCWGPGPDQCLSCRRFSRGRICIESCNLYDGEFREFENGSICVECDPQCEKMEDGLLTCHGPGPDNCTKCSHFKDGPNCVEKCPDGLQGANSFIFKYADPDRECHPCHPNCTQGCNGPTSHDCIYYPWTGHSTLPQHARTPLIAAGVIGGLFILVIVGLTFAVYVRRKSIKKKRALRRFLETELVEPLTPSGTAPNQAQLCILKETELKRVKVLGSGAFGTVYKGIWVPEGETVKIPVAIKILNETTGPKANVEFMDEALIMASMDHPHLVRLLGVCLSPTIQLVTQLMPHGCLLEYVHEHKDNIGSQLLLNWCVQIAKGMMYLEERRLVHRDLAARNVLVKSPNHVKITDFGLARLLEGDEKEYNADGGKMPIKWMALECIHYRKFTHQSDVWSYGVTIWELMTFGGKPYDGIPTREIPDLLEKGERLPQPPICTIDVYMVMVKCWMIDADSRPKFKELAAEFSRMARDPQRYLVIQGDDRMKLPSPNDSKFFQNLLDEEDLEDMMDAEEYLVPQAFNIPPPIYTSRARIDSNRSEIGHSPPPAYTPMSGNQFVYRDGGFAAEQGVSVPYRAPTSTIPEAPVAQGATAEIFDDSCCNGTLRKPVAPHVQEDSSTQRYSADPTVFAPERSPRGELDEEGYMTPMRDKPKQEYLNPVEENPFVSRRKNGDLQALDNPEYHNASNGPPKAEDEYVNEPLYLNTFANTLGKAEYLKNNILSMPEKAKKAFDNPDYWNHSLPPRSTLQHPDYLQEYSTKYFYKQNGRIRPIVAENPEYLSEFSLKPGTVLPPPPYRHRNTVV

Assays:
Assay in all cases: kinase-Nluc reporter destabilization hit call (1 = scored as downregulated) (binary); higher = compound decreases kinase abundance
Conditions in all cases: K562; 2-18 h
CDK7 = CDK7 (UniProt P50613)
CDK9 = CDK9 (UniProt P50750)
CHEK2 = CHEK2 (UniProt O96017)
CSF1R = CSF1R (UniProt P07333)
CSK = CSK (UniProt P41240)
CSNK1A1 = CSNK1A1 (UniProt P48729)
CSNK1D = CSNK1D (UniProt P48730)
DDR1 = DDR1 (UniProt Q08345)
DYRK1B = DYRK1B (UniProt Q9Y463)
DYRK2 = DYRK2 (UniProt Q92630)
EGFR = EGFR (UniProt P00533)
EGFR_G719S = EGFR_G719S (UniProt P00533)
EGFR_G719S_T790M = EGFR_G719S_T790M (UniProt P00533)
EGFR_L718V = EGFR_L718V (UniProt P00533)
EGFR_L858R = EGFR_L858R (UniProt P00533)
EGFR_L861Q = EGFR_L861Q (UniProt P00533)
EGFR_T790M = EGFR_T790M (UniProt P00533)
EPHA2 = EPHA2 (UniProt P29317)
ERBB3 = ERBB3 (UniProt P21860)
[1] = target: ERBB4_R711C (clone: ERBB4_mut) (UniProt Q15303)

Row | Structure (SMILES) | kinase-Nluc reporter destabilization hit call (CDK7) | kinase-Nluc reporter destabilization hit call (CDK9) | kinase-Nluc reporter destabilization hit call (CHEK2) | kinase-Nluc reporter destabilization hit call (CSF1R) | kinase-Nluc reporter destabilization hit call (CSK) | kinase-Nluc reporter destabilization hit call (CSNK1A1) | kinase-Nluc reporter destabilization hit call (CSNK1D) | kinase-Nluc reporter destabilization hit call (DDR1) | kinase-Nluc reporter destabilization hit call (DYRK1B) | kinase-Nluc reporter destabilization hit call (DYRK2) | kinase-Nluc reporter destabilization hit call (EGFR) | kinase-Nluc reporter destabilization hit call (EGFR_G719S) | kinase-Nluc reporter destabilization hit call (EGFR_G719S_T790M) | kinase-Nluc reporter destabilization hit call (EGFR_L718V) | kinase-Nluc reporter destabilization hit call (EGFR_L858R) | kinase-Nluc reporter destabilization hit call (EGFR_L861Q) | kinase-Nluc reporter destabilization hit call (EGFR_T790M) | kinase-Nluc reporter destabilization hit call (EPHA2) | kinase-Nluc reporter destabilization hit call (ERBB3) | kinase-Nluc reporter destabilization hit call [1]
1 | Nc1cc(C(F)(F)F)c(-c2nc(N3CCOCC3)nc(N3CCOCC3)n2)cn1 [Bimiralisib] (10 µM) | inactive: 0 | inactive: 0 | inactive: 0 | inactive: 0 | inactive: 0 | inactive: 0 | inactive: 0 | inactive: 0 | inactive: 0 | inactive: 0 | inactive: 0 | inactive: 0 | inactive: 0 | inactive: 0 | inactive: 0 | inactive: 0 | inactive: 0 | inactive: 0 | inactive: 0 | inactive: 0
2 | CC(C)c1ccc(CC(=O)N2CCN(c3ccc(C#N)nn3)CC2)cc1 (10 µM) | inactive: 0 | inactive: 0 | inactive: 0 | inactive: 0 | inactive: 0 | inactive: 0 | inactive: 0 | inactive: 0 | inactive: 0 | inactive: 0 | inactive: 0 | inactive: 0 | inactive: 0 | inactive: 0 | inactive: 0 | inactive: 0 | inactive: 0 | inactive: 0 | inactive: 0 | inactive: 0
3 | Cc1cnc(Nc2ccc(N3CCN(C)CC3)cc2)nc1Nc1cccc(S(=O)(=O)NC(C)(C)C)c1 (2.5 µM) | inactive: 0 | inactive: 0 | inactive: 0 | inactive: 0 | inactive: 0 | inactive: 0 | inactive: 0 | inactive: 0 | inactive: 0 | inactive: 0 | inactive: 0 | inactive: 0 | inactive: 0 | inactive: 0 | inactive: 0 | inactive: 0 | inactive: 0 | inactive: 0 | inactive: 0 | inactive: 0
4 | C=C[C@H]1[C@H](O[C@@H]2O[C@H](CO)[C@@H](O)[C@H](O)[C@H]2OC(=O)c2c(O)cc(O)cc2-c2cccc(O)c2)OC=C2C(=O)OCC[C@H]21 [Amarogentin] (10 µM) | inactive: 0 | inactive: 0 | inactive: 0 | inactive: 0 | inactive: 0 | inactive: 0 | inactive: 0 | inactive: 0 | inactive: 0 | inactive: 0 | inactive: 0 | inactive: 0 | inactive: 0 | inactive: 0 | inactive: 0 | inactive: 0 | inactive: 0 | inactive: 0 | inactive: 0 | inactive: 0
5 | CC(=O)NCCc1c[nH]c2ccc(O)cc12 [N-Acetyl-5-hydroxytryptamine] (10 µM) | inactive: 0 | inactive: 0 | inactive: 0 | inactive: 0 | inactive: 0 | inactive: 0 | inactive: 0 | inactive: 0 | inactive: 0 | inactive: 0 | inactive: 0 | inactive: 0 | inactive: 0 | inactive: 0 | inactive: 0 | inactive: 0 | inactive: 0 | inactive: 0 | inactive: 0 | inactive: 0
6 | CC[C@@H]1[C@H](F)C(=O)N[C@@H]1COc1nccc2cc(C(N)=O)c(OC)cc12 (10 µM) | inactive: 0 | inactive: 0 | inactive: 0 | inactive: 0 | inactive: 0 | inactive: 0 | inactive: 0 | inactive: 0 | inactive: 0 | inactive: 0 | inactive: 0 | inactive: 0 | inactive: 0 | inactive: 0 | inactive: 0 | inactive: 0 | inactive: 0 | inactive: 0 | inactive: 0 | inactive: 0
7 | Cn1cc(-c2cc3c(N4CCN(c5ncc([C@@](C)(N)c6ccc(F)cc6)cn5)CC4)ncnn3c2)cn1 [Avapritinib] (2.5 µM) | inactive: 0 | inactive: 0 | inactive: 0 | inactive: 0 | inactive: 0 | inactive: 0 | inactive: 0 | inactive: 0 | inactive: 0 | inactive: 0 | inactive: 0 | inactive: 0 | inactive: 0 | inactive: 0 | inactive: 0 | inactive: 0 | inactive: 0 | inactive: 0 | inactive: 0 | inactive: 0
8 | COc1ccc(-n2c(C)c([N+](=O)[O-])c3ccc(O)cc32)cc1 (10 µM) | inactive: 0 | inactive: 0 | inactive: 0 | inactive: 0 | inactive: 0 | inactive: 0 | inactive: 0 | inactive: 0 | inactive: 0 | inactive: 0 | inactive: 0 | inactive: 0 | inactive: 0 | inactive: 0 | inactive: 0 | inactive: 0 | inactive: 0 | inactive: 0 | inactive: 0 | inactive: 0
9 | CC(=O)Nc1nc2ccc(-c3cnc(C)c(NC(=O)OC4CCCCC4)c3)cc2s1 (10 µM) | inactive: 0 | inactive: 0 | inactive: 0 | inactive: 0 | inactive: 0 | inactive: 0 | inactive: 0 | inactive: 0 | inactive: 0 | inactive: 0 | inactive: 0 | inactive: 0 | inactive: 0 | inactive: 0 | inactive: 0 | inactive: 0 | inactive: 0 | inactive: 0 | inactive: 0 | inactive: 0
10 | CC1(COc2ccc3c(c2)ncn3-c2ccc3cccc(N4CCC(N)CC4)c3n2)COC1 [Crenolanib] (2.5 µM) | inactive: 0 | inactive: 0 | inactive: 0 | inactive: 0 | inactive: 0 | inactive: 0 | inactive: 0 | inactive: 0 | inactive: 0 | inactive: 0 | inactive: 0 | inactive: 0 | inactive: 0 | inactive: 0 | inactive: 0 | inactive: 0 | inactive: 0 | inactive: 0 | inactive: 0 | inactive: 0
11 | c1cc(-c2cnn3cc(-c4ccc(N5CCNCC5)cc4)cnc23)c2cccnc2c1 (2.5 µM) | inactive: 0 | inactive: 0 | inactive: 0 | inactive: 0 | inactive: 0 | inactive: 0 | inactive: 0 | active: 1 | inactive: 0 | inactive: 0 | inactive: 0 | inactive: 0 | inactive: 0 | inactive: 0 | inactive: 0 | inactive: 0 | inactive: 0 | inactive: 0 | inactive: 0 | inactive: 0
12 | O=C(O)c1ccccc1Nc1cccc(C(F)(F)F)c1 [Flufenamic acid] (10 µM) | inactive: 0 | active: 1 | inactive: 0 | inactive: 0 | inactive: 0 | inactive: 0 | inactive: 0 | inactive: 0 | inactive: 0 | inactive: 0 | inactive: 0 | inactive: 0 | inactive: 0 | inactive: 0 | inactive: 0 | inactive: 0 | inactive: 0 | inactive: 0 | inactive: 0 | inactive: 0
13 | CN(CC(=O)N(Cc1ccc(C2CCCCC2)cc1)c1ccc(C(=O)O)c(O)c1)S(=O)(=O)c1c(F)c(F)c(F)c(F)c1F (2.5 µM) | inactive: 0 | inactive: 0 | inactive: 0 | inactive: 0 | inactive: 0 | inactive: 0 | inactive: 0 | inactive: 0 | inactive: 0 | inactive: 0 | inactive: 0 | inactive: 0 | inactive: 0 | inactive: 0 | inactive: 0 | inactive: 0 | inactive: 0 | inactive: 0 | inactive: 0 | inactive: 0
14 | Nc1cccc(S(=O)(=O)N2CCCN(S(=O)(=O)c3ccc4c(c3)OCCO4)CC2)c1 (10 µM) | inactive: 0 | inactive: 0 | inactive: 0 | inactive: 0 | inactive: 0 | inactive: 0 | inactive: 0 | inactive: 0 | inactive: 0 | inactive: 0 | inactive: 0 | inactive: 0 | inactive: 0 | inactive: 0 | inactive: 0 | inactive: 0 | inactive: 0 | inactive: 0 | inactive: 0 | inactive: 0
15 | COc1ccc(CCNc2ncc3c(=O)n(-c4cccc(F)c4)c(=O)[nH]c3n2)cc1OC (2 µM) | inactive: 0 | inactive: 0 | inactive: 0 | inactive: 0 | inactive: 0 | inactive: 0 | inactive: 0 | inactive: 0 | inactive: 0 | inactive: 0 | inactive: 0 | inactive: 0 | inactive: 0 | inactive: 0 | inactive: 0 | inactive: 0 | inactive: 0 | inactive: 0 | inactive: 0 | inactive: 0
16 | CC(C)(C)C(=O)N1N=CC[C@H]1c1ccccc1 (10 µM) | inactive: 0 | inactive: 0 | inactive: 0 | inactive: 0 | inactive: 0 | inactive: 0 | inactive: 0 | inactive: 0 | inactive: 0 | inactive: 0 | inactive: 0 | inactive: 0 | inactive: 0 | inactive: 0 | inactive: 0 | inactive: 0 | inactive: 0 | inactive: 0 | inactive: 0 | inactive: 0
17 | COc1cc(C(=O)N2CCC(N3CCN(C)CC3)CC2)ccc1Nc1ncc2c(n1)N(C)c1ccccc1C(=O)N2C (10 µM) | inactive: 0 | inactive: 0 | inactive: 0 | inactive: 0 | inactive: 0 | inactive: 0 | inactive: 0 | inactive: 0 | inactive: 0 | inactive: 0 | inactive: 0 | inactive: 0 | inactive: 0 | inactive: 0 | inactive: 0 | inactive: 0 | inactive: 0 | inactive: 0 | inactive: 0 | inactive: 0
18 | OCCN(CCO)c1ccc(C(c2ccc(Cl)cc2)c2ccc(N(CCO)CCO)cc2)cc1 (10 µM) | inactive: 0 | active: 1 | inactive: 0 | inactive: 0 | inactive: 0 | inactive: 0 | inactive: 0 | inactive: 0 | inactive: 0 | inactive: 0 | inactive: 0 | inactive: 0 | inactive: 0 | inactive: 0 | inactive: 0 | inactive: 0 | inactive: 0 | inactive: 0 | inactive: 0 | inactive: 0

Single records (already shown). Order of values: kinase-Nluc reporter destabilization hit call (CDK7)	kinase-Nluc reporter destabilization hit call (CDK9)	kinase-Nluc reporter destabilization hit call (CHEK2)	kinase-Nluc reporter destabilization hit call (CSF1R)	kinase-Nluc reporter destabilization hit call (CSK)	kinase-Nluc reporter destabilization hit call (CSNK1A1)	kinase-Nluc reporter destabilization hit call (CSNK1D)	kinase-Nluc reporter destabilization hit call (DDR1)	kinase-Nluc reporter destabilization hit call (DYRK1B)	kinase-Nluc reporter destabilization hit call (DYRK2)	kinase-Nluc reporter destabilization hit call (EGFR)	kinase-Nluc reporter destabilization hit call (EGFR_G719S)	kinase-Nluc reporter destabilization hit call (EGFR_G719S_T790M)	kinase-Nluc reporter destabilization hit call (EGFR_L718V)	kinase-Nluc reporter destabilization hit call (EGFR_L858R)	kinase-Nluc reporter destabilization hit call (EGFR_L861Q)	kinase-Nluc reporter destabilization hit call (EGFR_T790M)	kinase-Nluc reporter destabilization hit call (EPHA2)	kinase-Nluc reporter destabilization hit call (ERBB3)	kinase-Nluc reporter destabilization hit call [1]
COc1ccc(-n2c(C)c([N+](=O)[O-])c3ccc(O)cc32)cc1 (10 µM) is entered as inactive: 0	inactive: 0	inactive: 0	inactive: 0	inactive: 0	inactive: 0	inactive: 0	inactive: 0	inactive: 0	inactive: 0	inactive: 0	inactive: 0	inactive: 0	inactive: 0	inactive: 0	inactive: 0	inactive: 0	inactive: 0	inactive: 0	inactive: 0
CC(C)(C)C(=O)N1N=CC[C@H]1c1ccccc1 (10 µM) is entered as inactive: 0	inactive: 0	inactive: 0	inactive: 0	inactive: 0	inactive: 0	inactive: 0	inactive: 0	inactive: 0	inactive: 0	inactive: 0	inactive: 0	inactive: 0	inactive: 0	inactive: 0	inactive: 0	inactive: 0	inactive: 0	inactive: 0	inactive: 0
